Reference: publication PMC9107400

Protein sequences, listed by entry. Tags and fused reporters are not part of them. Lines headed by an entry give the natural chain unless they say otherwise; changes in a name come on top. Chains listed by the source or under a name are the forms on record and can include a tag or linker. Residues count along the entry.
UniProt Q13485: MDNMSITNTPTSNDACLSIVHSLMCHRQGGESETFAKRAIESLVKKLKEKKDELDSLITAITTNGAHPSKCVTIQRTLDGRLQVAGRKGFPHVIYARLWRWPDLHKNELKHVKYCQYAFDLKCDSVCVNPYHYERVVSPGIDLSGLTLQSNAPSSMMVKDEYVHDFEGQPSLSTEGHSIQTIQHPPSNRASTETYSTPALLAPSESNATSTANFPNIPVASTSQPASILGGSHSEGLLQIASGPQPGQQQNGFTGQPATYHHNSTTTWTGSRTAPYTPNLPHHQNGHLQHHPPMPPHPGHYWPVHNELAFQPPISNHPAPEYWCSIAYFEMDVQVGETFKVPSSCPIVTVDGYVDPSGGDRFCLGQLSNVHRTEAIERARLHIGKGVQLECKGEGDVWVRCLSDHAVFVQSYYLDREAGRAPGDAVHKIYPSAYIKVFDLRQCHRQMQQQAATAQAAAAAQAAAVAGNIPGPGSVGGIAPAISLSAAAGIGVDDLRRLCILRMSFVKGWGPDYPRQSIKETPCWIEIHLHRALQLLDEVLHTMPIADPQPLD
FLAG-tagged SMAD4 deletion construct with only the MH1 domain: residues 18-142 of Q13485
UniProt P10275: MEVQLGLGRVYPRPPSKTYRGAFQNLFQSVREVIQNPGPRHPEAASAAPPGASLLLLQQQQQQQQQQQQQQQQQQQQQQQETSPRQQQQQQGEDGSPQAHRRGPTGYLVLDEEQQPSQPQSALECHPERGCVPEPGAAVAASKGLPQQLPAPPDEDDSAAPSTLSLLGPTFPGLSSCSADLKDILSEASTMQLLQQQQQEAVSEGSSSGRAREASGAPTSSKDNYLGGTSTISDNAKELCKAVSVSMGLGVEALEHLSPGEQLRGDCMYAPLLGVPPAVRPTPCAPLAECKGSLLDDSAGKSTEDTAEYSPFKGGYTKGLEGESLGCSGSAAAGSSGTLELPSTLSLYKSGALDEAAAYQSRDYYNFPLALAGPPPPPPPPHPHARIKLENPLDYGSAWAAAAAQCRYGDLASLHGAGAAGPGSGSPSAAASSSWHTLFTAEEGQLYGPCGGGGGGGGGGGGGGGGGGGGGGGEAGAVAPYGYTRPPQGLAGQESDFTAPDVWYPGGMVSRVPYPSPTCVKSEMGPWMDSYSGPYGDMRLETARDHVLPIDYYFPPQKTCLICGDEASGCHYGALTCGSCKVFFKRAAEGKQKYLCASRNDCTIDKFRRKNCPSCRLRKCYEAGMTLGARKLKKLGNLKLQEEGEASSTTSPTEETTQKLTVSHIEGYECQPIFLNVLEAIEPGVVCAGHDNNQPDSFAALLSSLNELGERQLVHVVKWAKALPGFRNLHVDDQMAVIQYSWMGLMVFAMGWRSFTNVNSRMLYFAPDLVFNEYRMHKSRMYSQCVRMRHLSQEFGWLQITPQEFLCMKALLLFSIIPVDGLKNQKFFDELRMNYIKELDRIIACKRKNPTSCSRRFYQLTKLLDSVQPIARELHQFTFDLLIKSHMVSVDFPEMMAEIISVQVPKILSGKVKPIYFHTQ

How the values were obtained:
[1] = biological target: FLAG-tagged SMAD4 deletion construct with only the MH1 domain (UniProt Q13485); test: co-IP; HEK293T cells transfected with FLAG-tagged SMAD4 (or its deletion constructs) and AR constructs, treated with DHT 10 nM and BMP7 50 ng/mL for 12 h; nuclear extracts incubated overnight at 4 °C with anti-FLAG or anti-AR antibody (IgG isotype as control) on protein G Dynabeads; Western blot for AR and SMAD4
[2] = biological target: N-terminal FLAG-tagged SMAD4 (UniProt Q13485); test: as above

binding [1]: binds
binding [2]: binds
Substance: AR24Q (from UniProt P10275)

Results are given in words; binding and its absence hold for the method and conditions named. Binding seen in cells or lysates may run through a third protein. Binding calls can cover weak binding; strength is not graded here.
